Data on one compound can be found in PubChem BioAssay AID290 (DTP/NCI, 2004).

The list is a part of this screen's results and no random one: it covers a few groups of compounds. Other doses and runs of a compound may be missing. T/C gives the treated animals as a percentage of the vehicle group. Some entries show no survivor count and are marked so; the dose need not have been tolerated. Schedule codes are those of the source, taken here to give the interval after Q, in days (D) or hours (H), and the number of doses after X.

In the assay the test system is mice, P1798 lymphosarcoma sc, survival or tumor weight T/C. The assay is described as follows: NCI In Vivo Anticancer Drug Screen. Data for tumor model P1798 Lymphosarcoma (subcutaneous) in unknown mice. Conditions: T/C endpoint: mean tumor weight, schedule: Q01DX010 (ip), vehicle: saline, evaluation day not shown, higher T/C = larger tumour. As for the experimental part: The antitumor activity of compounds was measured in mice bearing transplantable tumors. Survival or tumor size were measured and the results are expressed as the measurement made in the treated group (T) divided by the measurement made in the vehicle treated control group (C). The tumor model used in this assay is P1798 Lymphosarcoma (subcutaneous) in unknown mice

As for `CN(CCCl)CCCl`, the T/C is 84 % of control [survivor count not shown] (dose: 0.01 mg/kg/injection); 107 % of control [survivor count not shown] (dose: 0.02 mg/kg/injection); 92 % of control [survivor count not shown] (dose: 0.04 mg/kg/injection); 117 % of control [survivor count not shown] (dose: 5.0 micrograms/kg/injection); 125 % of control [survivor count not shown] (dose: 20.0 micrograms/kg/injection).
